For 60 compounds, AC50 results are on record in PubChem BioAssay AID445 (National Center for Advancing Translational Sciences (NCATS), 2006).

SMILES strings stand for the structures. The list shows a part of the results. The main result of the screen is listed elsewhere. These columns were measured beside it and carry no call. Most of these compounds were active or inconclusive in the main read-out, so they are no random draw. The note in brackets gives the kind of curve behind each potency; many fits are weak.

This experiment is described as follows: IkB Signaling. The following applies: ABC-DLBCL IkBa-CBG/CBR dual luciferase ratio (green luciferase fused to IkBa over red control in OCI-Ly3 lymphoma cells), 4 h. The gist of the method: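 Curves were fitted separately to fusion (green), unfused (red) and ratio luminescence, then classed by r2, magnitude and activity. Cells: OCI-Ly3, 4 h compound plus doxycycline at 37C; 10 uM MG-132 defined full response.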
Setting [1] is: measured here: control luc red channel unless noted.
Setting [2] is: measured here: IkB-luc green channel.
Where [3] appears, read: measured here: control luc red channel.

Take `COc1cc2cc(CNc3ccccc3)c(=O)n(CC(=O)Nc3cccc(Cl)c3C)c2cc1OC`: the AC50 under setting [1] was 25.1 µM [falling, single point].
The same measure, in the same setting: then `Cc1cccc(N2CCN(C(c3ccccc3)c3nnnn3CC3CCCO3)CC2)c1C` (stereo not drawn), with 20 µM [falling, partial curve]; and `Cc1ccccc1Cn1cc(S(=O)(=O)CC(=O)Nc2nccs2)c2ccccc21`, with 10 µM [falling, partial curve].
Take `Cc1cccc(N2C(=O)CC(N(O)c3ccccc3)C2=O)c1` (stereo not drawn): the AC50 under setting [1] is 12.6 µM [falling, partial curve].
For `Cc1ccc(-n2c3c(cc(C(=O)Nc4ccccc4C(N)=O)c2=O)C(=O)CC(C)(C)C3)cc1`, the AC50 under setting [1] is 10 µM [falling, partial curve].
In the case of `CCOc1ccccc1NC(=O)c1c(NC(=O)COc2ccccc2)sc2c1CCCC2`, under setting [1], the AC50 is 12.6 µM [falling, partial curve].
For `COc1ccc(C2=Nc3ccccc3NC(c3cccs3)=N2)cc1`, under setting [1], the AC50 is 25.1 µM [falling, single point].
Take `O=C1CC(c2ccccc2)Sc2ccccc2N1Cc1ccc(F)cc1` (stereo not drawn): the AC50 under setting [1] was 20 µM [falling, partial curve].
`CC(C)(C)C(=O)CSc1nccc(=O)[nH]1`: the AC50 under setting [1] was 31.6 µM [rising, single point].
For the compound `CCCc1cc(=O)[nH]c(Nc2cc(C)ccc2OC)n1`, under setting [1], the AC50 is 0.794 µM [falling, partial curve].
As for `CC(Sc1nnc2ccc3ccccc3n12)C(=O)Nc1ccc(Cl)cc1` (stereo not drawn), the AC50 under setting [1] was 3.16 µM [falling, partial curve].
Still for that read-out and setting: to `COc1ccccc1NC(=O)Cn1c(SCC(=O)Nc2ccc(F)cc2)nc2ccccc21` belongs 12.6 µM [falling, partial curve]; to `Cc1nc2ccn(Cc3ccccc3)c(=O)c2cc1C(=O)N1CCN(c2ccc(F)cc2)CC1`, 31.6 µM [falling, single point].
With `O=S(=O)(c1ccc(N2CC=C(c3ccccc3)CC2)nc1)N1CCCC1`, the AC50 under setting [1] is 39.8 µM [rising, single point] [measured here: IkB-luc green channel].
On to `CCc1ccc(NC(=O)CC2C(=O)N(c3cccc(OC)c3)C(=O)N2Cc2ccc(F)cc2)cc1` (stereo not drawn), for which the AC50 under setting [1] is 12.6 µM [falling, partial curve].
Regarding `COCCc1nn2c(=O)cc(COC(=O)C(c3ccccc3)c3ccccc3)nc2s1`, under setting [1], the AC50 was 25.1 µM [falling, partial curve, poor fit].
`CCN(CC)c1ccc(NC(=O)c2cccn2-c2nnc(N3CCCCC3)s2)c(C)c1`: under setting [1], the AC50 was 25.1 µM [falling, partial curve].
In the case of `Cc1c(Cl)cccc1-n1ncc(C(=O)N2CCN(c3ncccn3)CC2)c1C1CCN(C(=O)OC(C)(C)C)CC1`, the AC50 under setting [1] is 39.8 µM [falling, single point].
The same measure, in the same setting: then `Cc1ccc(NC(=O)C(Cc2ccccc2)NS(=O)(=O)c2ccc3c(c2)c(=O)n(C)c(=O)n3C)c(C)c1` (stereo not drawn), with 25.1 µM [falling, partial curve]; and `OC[C@@H]1O[C@@H](n2cnc3c(Nc4ccccc4)ncnc32)[C@@H](O)[C@H]1O`, with 1.26 µM [rising, full curve] [measured here: IkB-luc green channel]; and `COc1ccccc1CNC(=O)c1c[nH]c2ccc(S(=O)(=O)Nc3cc(C)cc(C)c3)cc2c1=O`, with 20 µM [falling, partial curve].
On the same count and under the same terms, then `CCCOc1ccc(CNC(=O)CCCn2ncn3c(cc4sc(CC)cc43)c2=O)cc1`, with 15.8 µM [falling, single point].
The same measure, in the same setting: to `COc1ccccc1OCC(=O)Nc1ccc(O)cc1C(=O)O` belongs 0.501 µM [falling, full curve]; to `CCCOc1ccc(NC(=O)CC2C(=O)N(c3ccccc3)C(=O)N2Cc2ccco2)cc1` (stereo not drawn), 10 µM [falling, partial curve, poor fit].
For `CCNS(=O)(=O)c1ccc(NC(=O)CSc2nc(-c3ccco3)cc(C(F)(F)F)n2)cc1`, the AC50 under setting [1] is 39.8 µM [falling, single point].
On the same count and under the same terms, then `COc1cccc(NC(=O)CCC(=O)N2Cc3ccccc3Oc3ncccc32)c1`, with 20 µM [falling, partial curve, poor fit]; and `CC(C)OC(=O)c1cccc(NC(=O)Cn2nnc3sc4c(c3c2=O)CCCC4)c1`, with 15.8 µM [falling, partial curve].
As to `COc1cccc(Nc2ncc3nc(C)c(=O)n(C)c3n2)c1`, under setting [1], the AC50 is 3.16 µM [falling, partial curve] [measured here: IkB-luc green channel].
With `Cc1ccc(-n2cc(-c3ccccc3)c3c(N4CCCCC4)ncnc32)cc1`, under setting [1], the AC50 was 3.16 µM [falling, partial curve].
Consider `Cc1cccc(Nc2nnc(-c3ccc(C)c(S(=O)(=O)N4CCCCC4)c3)c3ccccc23)c1`, for which the AC50 under setting [1] was 0.398 µM [falling, full curve].
Same read-out and setting: then `CC(=O)c1cc(C(=O)Nc2ccccc2C(=O)O)oc1C`, with 0.316 µM [falling, full curve].
Turning to `CCOC(=O)CCS(=O)(=O)c1nc(-c2ccccc2)cc(C(F)(F)F)n1`, the AC50 by setting is: under setting [2], 10 µM [falling, partial curve]; under setting [3], 3.98 µM [falling, full curve].
For `O=C(Nc1cc(Cl)cc(Cl)c1)c1ccc(F)c(S(=O)(=O)NCc2ccccc2Cl)c1`, under setting [1], the AC50 was 31.6 µM [falling, partial curve].
Take `CCOc1ccc(NS(=O)(=O)c2ccc3nc(-c4ccccc4)[nH]c3c2)cc1`: the AC50 is 39.8 µM [rising, single point] under setting [2] and 15.8 µM [falling, partial curve] under setting [3].
With `Cc1ccc(C)c(N2CCN(C(=O)CN(C)S(=O)(=O)c3ccc4c(c3)CCC(=O)N4)CC2)c1`, the AC50 under setting [1] is 12.6 µM [falling, partial curve].
Regarding `Cc1nn(-c2ccccc2)c2sc(C(=O)Nc3cccc(O)c3)cc12`, under setting [1], the AC50 is 25.1 µM [falling, single point].
For `COc1cc(CN(C(=O)COc2ccc(Cl)c(C)c2)c2ccccn2)cc(OC)c1OC`, the AC50 under setting [1] is 39.8 µM [falling, single point].
For `COc1ccc(CCNC(=O)CCCn2nc(C)c3sc4ccccc4c3c2=O)cc1OC`, the AC50 under setting [1] is 10 µM [falling, partial curve].
Regarding `CCc1ccccc1Nc1nn2c(=O)c3ccc(C(=O)NC4CCCCC4)cc3nc2s1`, the AC50 under setting [1] was 2.51 µM [falling, partial curve, poor fit].
For `Cc1ccc(NC(=O)CN(c2cc(C)cc(C)c2)S(=O)(=O)c2c(C)noc2C)nc1`, under setting [1], the AC50 is 10 µM [falling, partial curve].
As to `CCOC(=O)c1c(N)n(-c2cccc(C)c2C)c2nc3ccccc3nc12`, under setting [1], the AC50 was 6.31 µM [rising, full curve].
For `CCOC(=O)Cn1nnnc1C(CC)N(Cc1cccs1)Cc1cc2ccc(OC)cc2[nH]c1=O` (stereo not drawn), under setting [1], the AC50 is 39.8 µM [falling, single point].
With `COc1cccc2c1Oc1ncccc1N(c1ccc(C(=O)NCc3cccc(C)c3)s1)C2`, the AC50 under setting [1] was 12.6 µM [falling, partial curve].
Consider `COc1ccc(/C=C/c2nc(C#N)c(N3CCC(C)CC3)o2)cc1OC`, for which the AC50 under setting [1] is 39.8 µM [falling, single point].
Still for that read-out and setting: then `COc1cc(C2=NOC(C(=O)N3CCCc4ccccc43)C2)cc(OC)c1OC` (stereo not drawn), with 12.6 µM [falling, partial curve]; and `CSc1ccc(CCNC(=O)c2ccc(CS(=O)Cc3ccc(Cl)cc3)o2)cc1` (stereo not drawn), with 15.8 µM [falling, partial curve].
Same read-out and setting: to `Cc1cccc(-c2nc(CSCC(=O)N3CCN(c4cccc(C)c4C)CC3)c(C)o2)c1` belongs 25.1 µM [falling, single point].
Consider `Cc1ccc(Cl)cc1NC(=O)c1cc(S(=O)(=O)N2CCCCCC2)cn1C`, for which the AC50 under setting [1] was 7.94 µM [falling, partial curve].
The same measure, in the same setting: then `CCc1ccc2c(c1)NC(c1cccnc1)=NC(c1ccc(C(C)(C)C)cc1)=N2`, with 20 µM [falling, single point]; and `COc1cc(C2CC(=O)Nc3c2c(C)nn3-c2nncc(-c3ccccc3)n2)cc(OC)c1OC` (stereo not drawn), with 12.6 µM [falling, partial curve].
With `O=C(CSc1nc(-c2cccs2)nc2cc(=O)[nH]n12)Nc1ccccc1Cl`, under setting [1], the AC50 was 39.8 µM [falling, single point].
On the same count and under the same terms, then `CCn1c(SCc2ccccc2F)nc(=O)c2c(C(=O)OC)cc(C3CC3)nc21`, with 39.8 µM [falling, single point].
`Cc1c(O)ccc(C(=O)COc2ccccc2F)c1O`: the AC50 under setting [1] is 12.6 µM [falling, partial curve].
Turning to `Cc1cccc(N2CCN(C(=O)c3ccc(NC(=O)c4nsc5ccccc45)cc3)CC2C)c1` (stereo not drawn), the AC50 under setting [1] was 0.2 µM [falling, full curve].
On to `CCOc1ccc(Cl)cc1C1CC(=O)Nc2cc(OC)c(OC)c(OC)c21` (stereo not drawn), for which the AC50 under setting [1] was 3.16 µM [rising, partial curve].
With `CCOC(=O)C1CCCN(C(=O)Cn2ncc3c([nH]c4ccc(C)cc43)c2=O)C1` (stereo not drawn), under setting [1], the AC50 was 39.8 µM [falling, single point].
As for `CCCC(CCC)C(=O)Nc1cccc(-c2cn3cccnc3n2)c1`, the AC50 is 0.0158 µM [falling, full curve, poor fit] under setting [2] and 0.251 µM [falling, full curve] under setting [3].
On to `COc1ccccc1CNC(=O)c1sc2nc3n(c(=O)c2c1C)CCC3`, for which, under setting [1], the AC50 was 39.8 µM [falling, single point].
Take `CCOc1ccc(-c2nnc(NC(=O)c3ccc(OCC(C)C)c(OC)c3)o2)cc1`: the AC50 under setting [1] is 39.8 µM [falling, single point].
For the compound `CCc1cnc2c(c1SCC(=O)Nc1cc(Cl)ccc1OC)c(=O)n(C)c(=O)n2C`, the AC50 under setting [1] was 31.6 µM [falling, single point].
